Article doi:10.1101/2023.04.11.536274
These are yes or no findings as the source states them, for the method shown. Some binding calls cover weakened binding; strength is not graded here.

Target: myosin regulatory light chain (RLC) (human (endogenous in ventricular tissue)) (UniProt P10916)
Assay: cryo-EM structure

binding: binds
B1: myosin regulatory light chain (RLC) (protein, UniProt P10916 1-166)
chain: MAPKKAKKRAGGANSNVFSMFEQTQIQEFKEAFTIMDQNRDGFIDKNDLRDTFAALGRVNVKNEEIDEMIKEAPGPINFTVFLTMFGEKLKGADPEETILNAFKVFDPEGKGVLKADYVREMLTTQAERFSKEEVDQMFAAFPPDVTGNLDYKNLVHIITHGEEKD
